Results as given in US20260265538A1, “Aqueous Industrial Product Stabilized Against Microbial Contamination” (Thor GmbH, priority 2023, published 2026).
The source gives many values for each of these; only a part stands here.

Tested on: Bacteria mixture 1 (Pseudomonas genus)
Experiment: Repetitive stress test of paints with bacteria mixture 1, semiquantitative evaluation (examples 2 and 3)
Assay type: cell-based
Design: key: 0: No growth; Minimal growth, 1 to 10 colonies visible over the entire streak; 2: Light growth, maximum 100 colonies; Moderate growth, maximum 300 to 400 colonies; Uniform growth, >400 colonies, single colonies still clearly recognizable; 5: Heavy growth, too many colonies to count, but no growth over the entire streak; 6: Full growth, barely any single colonies still apparent, growth over the entire streak
Details: Table 3, 6 d
Excerpt: Paints 1 to 3 were mixed and homogenized with various concentrations of the guanidinium salts to be tested.
The batches obtained of the paint thus prepared were inoculated repeatedly with a mixture of different wild-type bacterial strains that are of practical relevance with regard to contamination. These bacteria had previously been isolated from commercial emulsion paints containing conventional preservatives (bacteria mixture 1, Pseudomonas genus), which are microbially contaminated in practice, and commercial so-called preservative-free alkaline emulsion paints (bacteria mixture 2, alkaliphilic bacteria of the Nesterenkonia & Alkalibacterium genus), which are microbially contaminated in practice.
• Pseudomonas spp. (Pseudomonas oleovorans group) DSM 33933 • Pseudomonas aeruginosa DSM 33935 • Pseudomonas oleovorans DSM 33936 • Pseudomonas putida DSM 33937 • Pseudomonas aeruginosa DSM 33938
The inoculum was added to the respective sample in each inoculation at 2% (v/w) as a fresh cell suspension in a physiological saline solution (0.9% NaCl). The cell count of the added inoculum in example 1 was 10^5/ml, in examples 2 to 5 10^9/ml, and in example 6 10^6/ml, each in equal portions consisting of the individual bacterial strains. The cell suspension was produced by growing the individual bacteria at 30° C. for 24 h in liquid culture on a shaker. The medium used to grow the bacteria from bacteria mixture 1 was Müller-Hinton liquid medium. Bacteria from bacteria mixture 2 were grown in Müller-Hinton liquid medium that had been adjusted to pH 9.5-9.7 with an alkaline buffer solution beforehand. After growing, the individual liquid cultures were centrifuged, and the cells were resuspended in physiological saline solution. In order to adjust the mixture to the desired cell count, the individual bacteria suspensions, if necessary, were diluted accordingly before being combined with saline solution. The cell count of the inoculum was determined in each case by chamber counting.
In examples 2 to 6, what is called a repetitive stress test with bacteria was conducted by inoculating the samples at particular time intervals repeatedly with a bacteria suspension having a cell count of 10^9/ml (2% v/w) and monitoring the evolution of the bacteria by a semiquantitative evaluation method. After each inoculation, the samples were incubated at 30° C. for 6 days (bacteria mixture 1 and 3) or 7 and 14 days (bacteria mixture 2), and after these periods bacterial infestation was evaluated semiquantitatively in each case. For this purpose, an aliquot was taken from each sample after homogenization using a sterile plastic inoculation loop (10 μl) and streaked evenly on agar plates (bacteria mixture 1 and 3 on tryptic soy agar, bacteria mixture 2 on DSMZ 31 alkaline nutrient agar). The streaked agar plates were then incubated at 30° C. for 48 h (bacteria mixture 1 and 3) or 5 to 7 days (bacteria mixture 2). After incubation, the bacterial colonies grown on the agar plates were visually evaluated and quantified according to the following scheme:
A total of 3 inoculation cycles was performed in each repetitive stress test.
Inoculation 2% (w/v) with Bacteria Mixture 1, 10^9 CFU/ml
2% (w/v) Inoculation with Bacteria Mixture 1, […]

N=C(N)N.N=C(N)N.O=C(O)O [guanidine carbonate]
Bacterial growth after inoculation (Paint 1, +0.1% guanidine carbonate (656 ppm guanidine), pH 9.1, 1. inoculation): 6
Bacterial growth after inoculation (Paint 1, +0.1% guanidine carbonate (656 ppm guanidine), pH 9.1, 2. inoculation): 6
Bacterial growth after inoculation (Paint 1, +0.1% guanidine carbonate (656 ppm guanidine), pH 9.1, 3. inoculation): 6
Bacterial growth after inoculation (Paint 1, +0.125% guanidine carbonate (820 ppm guanidine), pH 9.3, 1. inoculation): 3 (Moderate growth, maximum 300 to 400 colonies)
Bacterial growth after inoculation (Paint 1, +0.125% guanidine carbonate (820 ppm guanidine), pH 9.3, 2. inoculation): 5
Bacterial growth after inoculation (Paint 1, +0.125% guanidine carbonate (820 ppm guanidine), pH 9.3, 3. inoculation): 6
Bacterial growth after inoculation (Paint 1, +0.15% guanidine carbonate (984 ppm guanidine), pH 9.4, 1. inoculation): 0
Bacterial growth after inoculation (Paint 1, +0.15% guanidine carbonate (984 ppm guanidine), pH 9.4, 2. inoculation): 0
Bacterial growth after inoculation (Paint 1, +0.15% guanidine carbonate (984 ppm guanidine), pH 9.4, 3. inoculation): 6
Bacterial growth after inoculation (Paint 1, +0.175% guanidine carbonate (1148 ppm guanidine), pH 9.4, 1. inoculation): 0
Bacterial growth after inoculation (Paint 1, +0.175% guanidine carbonate (1148 ppm guanidine), pH 9.4, 2. inoculation): 0
Bacterial growth after inoculation (Paint 1, +0.175% guanidine carbonate (1148 ppm guanidine), pH 9.4, 3. inoculation): 6
Bacterial growth after inoculation (Paint 1, +0.2% guanidine carbonate (1312 ppm guanidine), pH 9.6, 1. inoculation): 0
Bacterial growth after inoculation (Paint 1, +0.2% guanidine carbonate (1312 ppm guanidine), pH 9.6, 2. inoculation): 0
Bacterial growth after inoculation (Paint 1, +0.2% guanidine carbonate (1312 ppm guanidine), pH 9.6, 3. inoculation): 0
Bacterial growth after inoculation (Paint 1, +0.3% guanidine carbonate (1968 ppm guanidine), pH 9.7, 1. inoculation): 0
Bacterial growth after inoculation (Paint 1, +0.3% guanidine carbonate (1968 ppm guanidine), pH 9.7, 2. inoculation): 0
Bacterial growth after inoculation (Paint 1, +0.3% guanidine carbonate (1968 ppm guanidine), pH 9.7, 3. inoculation): 0
Bacterial growth after inoculation (Paint 2, +0.1% guanidine carbonate (656 ppm guanidine), pH 8.9, 1. inoculation): 6
Bacterial growth after inoculation (Paint 2, +0.1% guanidine carbonate (656 ppm guanidine), pH 8.9, 2. inoculation): 6
Bacterial growth after inoculation (Paint 2, +0.1% guanidine carbonate (656 ppm guanidine), pH 8.9, 3. inoculation): 6
Bacterial growth after inoculation (Paint 2, +0.125% guanidine carbonate (820 ppm guanidine), pH 9.0, 1. inoculation): 6
Bacterial growth after inoculation (Paint 2, +0.125% guanidine carbonate (820 ppm guanidine), pH 9.0, 2. inoculation): 6
Bacterial growth after inoculation (Paint 2, +0.125% guanidine carbonate (820 ppm guanidine), pH 9.0, 3. inoculation): 6
Bacterial growth after inoculation (Paint 2, +0.15% guanidine carbonate (984 ppm guanidine), pH 9.0, 1. inoculation): 6
Bacterial growth after inoculation (Paint 2, +0.15% guanidine carbonate (984 ppm guanidine), pH 9.0, 2. inoculation): 6
Bacterial growth after inoculation (Paint 2, +0.15% guanidine carbonate (984 ppm guanidine), pH 9.0, 3. inoculation): 6
Bacterial growth after inoculation (Paint 2, +0.175% guanidine carbonate (1148 ppm guanidine), pH 9.1, 1. inoculation): 0
Bacterial growth after inoculation (Paint 2, +0.175% guanidine carbonate (1148 ppm guanidine), pH 9.1, 2. inoculation): 0
Bacterial growth after inoculation (Paint 2, +0.175% guanidine carbonate (1148 ppm guanidine), pH 9.1, 3. inoculation): 6
Bacterial growth after inoculation (Paint 2, +0.2% guanidine carbonate (1312 ppm guanidine), pH 9.1, 1. inoculation): 0
Bacterial growth after inoculation (Paint 2, +0.2% guanidine carbonate (1312 ppm guanidine), pH 9.1, 2. inoculation): 0
Bacterial growth after inoculation (Paint 2, +0.2% guanidine carbonate (1312 ppm guanidine), pH 9.1, 3. inoculation): 6
Bacterial growth after inoculation (Paint 2, +0.25% guanidine carbonate (1640 ppm guanidine), pH 9.1, 1. inoculation): 0
Bacterial growth after inoculation (Paint 2, +0.25% guanidine carbonate (1640 ppm guanidine), pH 9.1, 2. inoculation): 0
Bacterial growth after inoculation (Paint 2, +0.25% guanidine carbonate (1640 ppm guanidine), pH 9.1, 3. inoculation): 6
Bacterial growth after inoculation (Paint 2, +0.3% guanidine carbonate (1968 ppm guanidine), pH 9.2, 1. inoculation): 0
Bacterial growth after inoculation (Paint 2, +0.3% guanidine carbonate (1968 ppm guanidine), pH 9.2, 2. inoculation): 0
Bacterial growth after inoculation (Paint 2, +0.3% guanidine carbonate (1968 ppm guanidine), pH 9.2, 3. inoculation): 0
